Results reported in doi:10.1101/2025.09.03.674114.
No constants are given. Whether binding was seen depends on the method and setting. Binding seen in cells or lysates may run through a third protein. Here binding means that the protein was enriched with, or labelled near, the bait; the list need not be complete.

Chains of the proteins cited; added tags and fusions are not shown.
UniProt Q5S007: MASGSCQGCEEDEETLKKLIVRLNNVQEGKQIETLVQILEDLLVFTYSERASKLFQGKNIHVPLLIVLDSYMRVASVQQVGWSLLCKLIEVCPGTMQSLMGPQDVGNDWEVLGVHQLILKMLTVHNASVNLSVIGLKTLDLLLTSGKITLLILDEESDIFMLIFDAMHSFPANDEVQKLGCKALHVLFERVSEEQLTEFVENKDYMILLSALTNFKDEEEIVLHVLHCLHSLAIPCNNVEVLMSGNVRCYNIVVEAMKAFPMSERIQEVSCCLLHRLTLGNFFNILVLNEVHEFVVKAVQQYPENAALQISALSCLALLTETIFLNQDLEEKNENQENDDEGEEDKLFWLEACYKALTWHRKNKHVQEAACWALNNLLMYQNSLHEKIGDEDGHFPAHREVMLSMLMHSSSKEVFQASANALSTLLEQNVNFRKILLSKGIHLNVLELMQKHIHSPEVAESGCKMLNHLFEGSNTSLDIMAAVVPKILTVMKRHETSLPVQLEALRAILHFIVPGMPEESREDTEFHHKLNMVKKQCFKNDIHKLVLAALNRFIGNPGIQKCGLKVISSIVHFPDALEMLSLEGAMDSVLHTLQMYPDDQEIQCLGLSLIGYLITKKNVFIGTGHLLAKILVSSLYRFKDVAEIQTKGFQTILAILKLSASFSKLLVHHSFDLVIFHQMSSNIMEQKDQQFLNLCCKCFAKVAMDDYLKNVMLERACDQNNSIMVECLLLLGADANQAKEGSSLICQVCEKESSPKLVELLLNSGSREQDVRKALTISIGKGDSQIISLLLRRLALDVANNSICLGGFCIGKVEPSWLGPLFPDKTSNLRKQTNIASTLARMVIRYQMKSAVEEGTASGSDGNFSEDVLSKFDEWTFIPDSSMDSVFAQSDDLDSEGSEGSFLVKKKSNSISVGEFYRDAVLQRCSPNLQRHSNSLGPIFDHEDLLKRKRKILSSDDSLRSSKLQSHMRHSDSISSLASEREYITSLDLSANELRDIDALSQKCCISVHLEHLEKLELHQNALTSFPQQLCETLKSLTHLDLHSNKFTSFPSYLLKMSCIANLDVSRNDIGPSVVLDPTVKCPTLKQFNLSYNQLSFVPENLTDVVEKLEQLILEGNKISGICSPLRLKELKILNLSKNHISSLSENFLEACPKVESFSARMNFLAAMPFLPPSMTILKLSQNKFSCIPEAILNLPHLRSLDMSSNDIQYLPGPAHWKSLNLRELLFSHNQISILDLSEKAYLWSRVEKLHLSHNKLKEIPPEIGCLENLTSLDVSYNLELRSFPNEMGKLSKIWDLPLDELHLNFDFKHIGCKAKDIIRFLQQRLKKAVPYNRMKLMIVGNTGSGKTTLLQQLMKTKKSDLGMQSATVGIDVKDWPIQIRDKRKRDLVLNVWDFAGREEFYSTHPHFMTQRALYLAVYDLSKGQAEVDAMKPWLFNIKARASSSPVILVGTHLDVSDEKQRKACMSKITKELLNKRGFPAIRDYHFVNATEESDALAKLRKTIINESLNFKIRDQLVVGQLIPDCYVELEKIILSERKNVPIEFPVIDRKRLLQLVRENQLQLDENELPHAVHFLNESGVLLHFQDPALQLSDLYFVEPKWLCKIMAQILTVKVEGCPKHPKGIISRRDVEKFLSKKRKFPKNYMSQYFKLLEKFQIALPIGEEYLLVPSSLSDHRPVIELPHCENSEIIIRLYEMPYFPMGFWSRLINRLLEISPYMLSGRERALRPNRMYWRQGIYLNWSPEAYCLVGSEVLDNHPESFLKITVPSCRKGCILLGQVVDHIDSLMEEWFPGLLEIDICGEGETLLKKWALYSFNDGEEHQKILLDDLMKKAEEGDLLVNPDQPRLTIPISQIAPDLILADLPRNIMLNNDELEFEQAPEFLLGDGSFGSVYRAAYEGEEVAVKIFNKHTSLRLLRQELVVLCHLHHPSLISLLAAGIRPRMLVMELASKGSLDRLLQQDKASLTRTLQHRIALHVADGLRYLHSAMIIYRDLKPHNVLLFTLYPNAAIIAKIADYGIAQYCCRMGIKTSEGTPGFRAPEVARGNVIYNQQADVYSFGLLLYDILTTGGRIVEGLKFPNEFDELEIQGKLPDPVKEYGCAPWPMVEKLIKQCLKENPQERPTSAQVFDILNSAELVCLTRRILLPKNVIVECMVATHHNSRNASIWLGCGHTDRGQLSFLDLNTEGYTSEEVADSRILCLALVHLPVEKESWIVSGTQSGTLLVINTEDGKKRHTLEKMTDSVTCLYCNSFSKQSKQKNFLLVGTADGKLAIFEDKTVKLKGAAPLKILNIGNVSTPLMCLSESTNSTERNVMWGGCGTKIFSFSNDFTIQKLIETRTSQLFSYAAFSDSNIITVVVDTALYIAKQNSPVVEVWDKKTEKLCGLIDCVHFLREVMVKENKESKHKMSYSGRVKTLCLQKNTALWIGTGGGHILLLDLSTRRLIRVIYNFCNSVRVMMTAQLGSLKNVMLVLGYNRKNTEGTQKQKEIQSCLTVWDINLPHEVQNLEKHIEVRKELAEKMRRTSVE
UniProt Q8IY33: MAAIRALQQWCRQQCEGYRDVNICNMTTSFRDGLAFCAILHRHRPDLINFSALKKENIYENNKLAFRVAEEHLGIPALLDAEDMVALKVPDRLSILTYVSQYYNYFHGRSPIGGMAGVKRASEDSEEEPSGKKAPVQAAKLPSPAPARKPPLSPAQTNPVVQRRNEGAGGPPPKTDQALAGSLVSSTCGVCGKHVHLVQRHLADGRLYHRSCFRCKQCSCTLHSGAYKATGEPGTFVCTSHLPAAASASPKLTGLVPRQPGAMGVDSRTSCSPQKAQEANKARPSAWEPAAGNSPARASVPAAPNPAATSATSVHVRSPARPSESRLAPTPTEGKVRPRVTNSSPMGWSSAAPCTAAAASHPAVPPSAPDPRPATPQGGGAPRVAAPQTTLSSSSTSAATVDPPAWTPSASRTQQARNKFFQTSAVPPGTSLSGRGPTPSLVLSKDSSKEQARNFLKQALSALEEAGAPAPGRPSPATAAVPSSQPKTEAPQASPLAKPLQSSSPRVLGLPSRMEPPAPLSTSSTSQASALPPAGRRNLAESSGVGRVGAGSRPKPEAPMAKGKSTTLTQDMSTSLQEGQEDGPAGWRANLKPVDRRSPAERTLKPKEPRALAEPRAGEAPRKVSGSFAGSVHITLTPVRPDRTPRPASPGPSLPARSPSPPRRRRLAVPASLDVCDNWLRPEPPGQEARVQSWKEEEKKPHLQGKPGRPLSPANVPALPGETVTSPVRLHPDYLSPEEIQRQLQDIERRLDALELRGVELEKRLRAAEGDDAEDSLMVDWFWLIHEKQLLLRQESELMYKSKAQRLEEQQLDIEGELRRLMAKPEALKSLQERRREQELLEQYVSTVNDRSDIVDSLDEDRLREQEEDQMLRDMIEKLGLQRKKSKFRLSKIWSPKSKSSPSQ
UniProt Q92572: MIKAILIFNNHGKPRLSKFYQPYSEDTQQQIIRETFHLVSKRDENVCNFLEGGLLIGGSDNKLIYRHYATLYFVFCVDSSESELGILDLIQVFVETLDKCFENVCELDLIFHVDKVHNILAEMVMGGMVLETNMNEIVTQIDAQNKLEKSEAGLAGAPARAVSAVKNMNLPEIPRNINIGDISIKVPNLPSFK
UniProt P53618: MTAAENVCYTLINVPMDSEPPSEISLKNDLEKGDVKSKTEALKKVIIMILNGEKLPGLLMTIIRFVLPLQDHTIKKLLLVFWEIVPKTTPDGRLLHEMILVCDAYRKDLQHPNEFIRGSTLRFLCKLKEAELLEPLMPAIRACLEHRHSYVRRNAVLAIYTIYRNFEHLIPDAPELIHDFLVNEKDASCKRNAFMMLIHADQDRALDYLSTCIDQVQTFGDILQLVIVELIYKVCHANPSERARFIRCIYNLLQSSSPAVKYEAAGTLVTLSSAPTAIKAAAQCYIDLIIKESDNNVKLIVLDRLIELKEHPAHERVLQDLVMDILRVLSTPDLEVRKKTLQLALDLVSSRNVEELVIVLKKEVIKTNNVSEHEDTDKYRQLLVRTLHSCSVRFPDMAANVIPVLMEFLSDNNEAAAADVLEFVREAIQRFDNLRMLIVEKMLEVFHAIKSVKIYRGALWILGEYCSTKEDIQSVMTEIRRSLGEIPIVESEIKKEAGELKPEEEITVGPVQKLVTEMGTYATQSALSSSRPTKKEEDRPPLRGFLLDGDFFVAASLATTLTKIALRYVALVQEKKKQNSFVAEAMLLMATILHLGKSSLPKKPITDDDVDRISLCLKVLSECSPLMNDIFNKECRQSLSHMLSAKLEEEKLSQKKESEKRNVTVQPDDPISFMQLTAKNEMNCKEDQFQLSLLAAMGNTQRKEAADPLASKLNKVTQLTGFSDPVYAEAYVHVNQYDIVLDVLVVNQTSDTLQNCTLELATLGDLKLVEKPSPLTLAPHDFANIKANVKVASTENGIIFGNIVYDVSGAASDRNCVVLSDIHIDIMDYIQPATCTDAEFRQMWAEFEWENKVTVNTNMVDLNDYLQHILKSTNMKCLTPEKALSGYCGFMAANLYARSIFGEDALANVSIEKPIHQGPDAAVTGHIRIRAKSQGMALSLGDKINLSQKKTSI

Molecular target: 3xFLAG-turboID-LRRK2 (Leucine-rich repeat kinase 2) (UniProt Q5S007)
Assay: proximity labelling

| Molecule | binding |
| --- | --- |
| MICALL2 (from UniProt Q8IY33 1-904) | binds |
| MACF1 (from UniProt Q9UPN3 1-7388) | binds |
| CENPE (from UniProt Q02224 1-2701) | binds |
| AP3S1 (from UniProt Q92572 1-193) | binds |
| COPB1 (from UniProt P53618 1-953) | binds |
| AP3M2 (protein, UniProt P53677 1-418) MIHSLFLINSSGDIFLEKHWKSVVSRSVCDYFFEAQERATEAENVPPVIPTPHHYLLSVYRHKIFFVAVIQTEVPPLFVIEFLHRVVDTFQDYFGVCSEPVIKDNVVVVYEVLEEMLDNGFPLATESNILKELIKPPTILRTVVNTITGSTNVGDQLPTGQLSVVPWRRTGVKYTNNEAYFDVIEEIDAIIDKSGSTITAEIQGVIDACVKLTGMPDLTLSFMNPRLLDDVSFHPCVRFKRWESERILSFIPPDGNFRLLSYHVSAQNLVAIPVYVKHNISFRDSSSLGRFEITVGPKQTMGKTIEGVTVTSQMPKGVLNMSLTPSQGTHTFDPVTKMLSWDVGKINPQKLPSLKGTMSLQAGASKPDENPTINLQFKIQQLAISGLKVNRLDMYGEKYKPFKGIKYMTKAGKFQVRT | binds |
| Kif24 (protein, UniProt Q5T7B8 1-1368) MASWLYECLCEAELAQYYSHFTALGLQKIDELAKITMKDYSKLGVHDMNDRKRLFQLIKIIKIMQEEDKAVSIPERHLQTSSLRIKSQELRSGPRRQLNFDSPADNKDRNASNDGFEMCSLSDFSANEQKSTYLKVLEHMLPDDSQYHTKTGILNATAGDSYVQTEISTSLFSPNYLSAILGDCDIPIIQRISHVSGYNYGIPHSCIRQNTSEKQNPWTEMEKIRVCVRKRPLGMREVRRGEINIITVEDKETLLVHEKKEAVDLTQYILQHVFYFDEVFGEACTNQDVYMKTTHPLIQHIFNGGNATCFAYGQTGAGKTYTMIGTHENPGLYALAAKDIFRQLEVSQPRKHLFVWISFYEIYCGQLYDLLNRRKRLFAREDSKHMVQIVGLQELQVDSVELLLEVILKGSKERSTGATGVNADSSRSHAVIQIQIKDSAKRTFGRISFIDLAGSERAADARDSDRQTKMEGAEINQSLLALKECIRALDQEHTHTPFRQSKLTQVLKDSFIGNAKTCMIANISPSHVATEHTLNTLRYADRVKELKKGIKCCTSVTSRNRTSGNSSPKRIQSSPGALSEDKCSPKKVKLGFQQSLTVAAPGSTRGKVHPLTSHPPNIPFTSAPKVSGKRGGSRGSPSQEWVIHASPVKGTVRSGHVAKKKPEESAPLCSEKNRMGNKTVLGWESRASGPGEGLVRGKLSTKCKKVQTVQPVQKQLVSRVELSFGNAHHRAEYSQDSQRGTPARPASEAWTNIPPHQKEREEHLRFYHQQFQQPPLLQQKLKYQPLKRSLRQYRPPEGQLTNETPPLFHSYSENHDGAQVEELDDSDFSEDSFSHISSQRATKQRNTLENSEDSFFLHQTWGQGPEKQVAERQQSLFSSPRTGDKKDLTKSWVDSRDPINHRRAALDHSCSPSKGPVDWSRENSTSSGPSPRDSLAEKPYCSQVDFIYRQERGGGSSFDLRKDASQSEVSGENEGNLPSPEEDGFTISLSHVAVPGSPDQRDTVTTPLREVSADGPIQVTSTVKNGHAVPGEDPRGQLGTHAEYASGLMSPLTMSLLENPDNEGSPPSEQLVQDGATHSLVAESTGGPVVSHTVPSGDQEAALPVSSATRHLWLSSSPPDNKPGGDLPALSPSPIRQHPADKLPSREADLGEACQSRETVLFSHEHMGSEQYDADAEETGLDGSWGFPGKPFTTIHMGVPHSGPTLTPRTGSSDVADQLWAQERKHPTRLGWQEFGLSTDPIKLPCNSENVTWLKPRPISRCLARPSSPLVPSCSPKTAGTLRQPTLEQAQQVVIRAHQEQLDEMAELGFKEETLMSQLASNDFEDFVTQLDEIMVLKSKCIQSLRSQLQLYLTCHGPTAAPEGTVPS | binds |
| Vps50 (protein, UniProt Q96JG6 1-964) MQKIKSLMTRQGLKSPQESLSDLGAIESLRVPGKEEFRELREQPSDPQAEQELINSIEQVYFSVDSFDIVKYELEKLPPVLNLQELEAYRDKLKQQQAAVSKKVADLILEKQPAYVKELERVTSLQTGLQLAAVICTNGRRHLNIAKEGFTQASLGLLANQRKRQLLIGLLKSLRTIKTLQRTDVRLSEMLEEEDYPGAIQLCLECQKAASTFKHYSCISELNSKLQDTLEQIEEQLDVALSKICKNFDINHYTKVQQAYRLLGKTQTAMDQLHMHFTQAIHNTVFQVVLGYVELCAGNTDTKFQKLQYKDLCTHVTPDSYIPCLADLCKALWEVMLSYYRTMEWHEKHDNEDTASASEGSNMIGTEETNFDRGYIKKKLEHGLTRIWQDVQLKVKTYLLGTDLSIFKYDDFIFVLDIISRLMQVGEEFCGSKSEVLQESIRKQSVNYFKNYHRTRLDELRMFLENETWELCPVKSNFSILQLHEFKFMEQSRSPSVSPSKQPVSTSSKTVTLFEQYCSGGNPFEIQANHKDEETEDVLASNGYESDEQEKSAYQEYDSDSDVPEELKRDYVDEQTGDGPVKSVSRETLKSRKKSDYSLNKVNAPILTNTTLNVIRLVGKYMQMMNILKPIAFDVIHFMSQLFDYYLYAIYTFFGRNDSLESTGLGLSSSRLRTTLNRIQESLIDLEVSADPTATLTAAEERKEKVPSPHLSHLVVLTSGDTLYGLAERVVATESLVFLAEQFEFLQPHLDAVMPAVKKPFLQQFYSQTVSTASELRKPIYWIVAGKALDYEQMLLLMANVKWDVKEIMSQHNIYVDALLKEFEQFNRRLNEVSKRVRIPLPVSNILWEHCIRLANRTIVEGYANVKKCSNEGRALMQLDFQQFLMKLEKLTDIRPIPDKEFVETYIKAYYLTENDMERWIKEHREYSTKQLTNLVNVCLGSHINKKARQKLLAAIDDIDRPKR | binds |
| Vps51 (protein, UniProt Q9UID3 1-782) MAAAAAAGPSPGSGPGDSPEGPEGEAPERRRKAHGMLKLYYGLSEGEAAGRPAGPDPLDPTDLNGAHFDPEVYLDKLRRECPLAQLMDSETDMVRQIRALDSDMQTLVYENYNKFISATDTIRKMKNDFRKMEDEMDRLATNMAVITDFSARISATLQDRHERITKLAGVHALLRKLQFLFELPSRLTKCVELGAYGQAVRYQGRAQAVLQQYQHLPSFRAIQDDCQVITARLAQQLRQRFREGGSGAPEQAECVELLLALGEPAEELCEEFLAHARGRLEKELRNLEAELGPSPPAPDVLEFTDHGGSGFVGGLCQVAAAYQELFAAQGPAGAEKLAAFARQLGSRYFALVERRLAQEQGGGDNSLLVRALDRFHRRLRAPGALLAAAGLADAATEIVERVARERLGHHLQGLRAAFLGCLTDVRQALAAPRVAGKEGPGLAELLANVASSILSHIKASLAAVHLFTAKEVSFSNKPYFRGEFCSQGVREGLIVGFVHSMCQTAQSFCDSPGEKGGATPPALLLLLSRLCLDYETATISYILTLTDEQFLVQDQFPVTPVSTLCAEARETARRLLTHYVKVQGLVISQMLRKSVETRDWLSTLEPRNVRAVMKRVVEDTTAIDVQVGLLYEEGVRKAQSSDSSKRTFSVYSSSRQQGRYAPSYTPSAPMDTNLLSNIQKLFSERIDVFSPVEFNKVSVLTGIIKISLKTLLECVRLRTFGRFGLQQVQVDCHFLQLYLWRFVADEELVHLLLDEVVASAALRCPDPVPMEPSVVEVICERG | binds |
| Vps53 (protein, UniProt Q5VIR6 1-832) MMEEEELEFVEELEAVLQLTPEVQLAIEQVFPSQDPLDRADFNAVEYINTLFPTEQSLANIDEVVNKIRLKIRRLDDNIRTVVRGQTNVGQDGRQALEEAQKAIQQLFGKIKDIKDKAEKSEQMVKEITRDIKQLDHAKRHLTTSITTLNHLHMLAGGVDSLEAMTRRRQYGEVANLLQGVMNVLEHFHKYMGIPQIRQLSERVKAAQTELGQQILADFEEAFPSQGTKRPGGPSNVLRDACLVANILDPRIKQEIIKKFIKQHLSEYLVLFQENQDVAWLDKIDRRYAWIKRQLVDYEEKYGRMFPREWCMAERIAVEFCHVTRAELAKIMRTRAKEIEVKLLLFAIQRTTNFEGFLAKRFSGCTLTDGTLKKLESPPPSTNPFLEDEPTPEMEELATEKGDLDQPKKPKAPDNPFHGIVSKCFEPHLYVYIESQDKNLGELIDRFVADFKAQGPPKPNTDEGGAVLPSCADLFVYYKKCMVQCSQLSTGEPMIALTTIFQKYLREYAWKILSGNLPKTTTSSGGLTISSLLKEKEGSEVAKFTLEELCLICNILSTAEYCLATTQQLEEKLKEKVDVSLIERINLTGEMDTFSTVISSSIQLLVQDLDAACDPALTAMSKMQWQNVEHVGDQSPYVTSVILHIKQNVPIIRDNLASTRKYFTQFCVKFANSFIPKFITHLFKCKPISMVGAEQLLLDTHSLKMVLLDLPSISSQVVRKAPASYTKIVVKGMTRAEMILKVVMAPHEPLVVFVDNYIKLLTDCNTETFQKILDMKGLKRSEQSSMLELLRQRLPAPPSGAESSGSLSLTAPTPEQESSRIRKLEKLIKKRL | binds |
| GOLGA3 (protein, UniProt Q08378 1-1498) MDGASAEQDGLQEDRSHSGPSSLPEAPLKPPGPLVPPDQQDKVQCAEVNRASTEGESPDGPGQGGLCQNGPTPPFPDPPSSLDPTTSPVGPDASPGVAGFHDNLRKSQGTSAEGSVRKEALQSLRLSLPMQETQLCSTDSPLPLEKEEQVRLQARKWLEEQLKQYRVKRQQERSSQPATKTRLFSTLDPELMLNPENLPRASTLAMTKEYSFLRTSVPRGPKVGSLGLPAHPREKKTSKSSKIRSLADYRTEDSNAGNSGGNVPAPDSTKGSLKQNRSSAASVVSEISLSPDTDDRLENTSLAGDSVSEVDGNDSDSSSYSSASTRGTYGILSKTVGTQDTPYMVNGQEIPADTLGQFPSIKDVLQAAAAEHQDQGQEVNGEVRSRRDSICSSVSLESSAAETQEEMLQVLKEKMRLEGQLEALSLEASQALKEKAELQAQLAALSTKLQAQVECSHSSQQRQDSLSSEVDTLKQSCWDLERAMTDLQNMLEAKNASLASSNNDLQVAEEQYQRLMAKVEDMQRSMLSKDNTVHDLRQQMTALQSQLQQVQLERTTLTSKLKASQAEISSLQSVRQWYQQQLALAQEARVRLQGEMAHIQVGQMTQAGLLEHLKLENVSLSQQLTETQHRSMKEKGRIAAQLQGIEADMLDQEAAFMQIQEAKTMVEEDLQRRLEEFEGERERLQRMADSAASLEQQLEQVKLTLLQRDQQLEALQQEHLDLMKQLTLTQEALQSREQSLDALQTHYDELQARLGELQGEAASREDTICLLQNEKIILEAALQAAKSGKEELDRGARRLEEGTEETSETLEKLREELAIKSGQVEHLQQETAALKKQMQKIKEQFLQQKVMVEAYRRDATSKDQLISELKATRKRLDSELKELRQELMQVHGEKRTAEAELSRLHREVAQVRQHMADLEGHLQSAQKERDEMETHLQSLQFDKEQMVAVTEANEALKKQIEELQQEARKAITEQKQKMRRLGSDLTSAQKEMKTKHKAYENAVGILSRRLQEALAAKEAADAELGQLRAQGGSSDSSLALHERIQALEAELQAVSHSKTLLEKELQEVIALTSQELEESREKVLELEDELQESRGFRKKIKRLEESNKKLALELEHEKGKLTGLGQSNAALREHNSILETALAKREADLVQLNLQVQAVLQRKEEEDRQMKHLVQALQASLEKEKEKVNSLKEQVAAAKVEAGHNRRHFKAASLELSEVKKELQAKEHLVQKLQAEADDLQIREGKHSQEIAQFQAELAEARAQLQLLQKQLDEQLSKQPVGNQEMENLKWEVDQKEREIQSLKQQLDLTEQQGRKELEGLQQLLQNVKSELEMAQEDLSMTQKDKFMLQAKVSELKNNMKTLLQQNQQLKLDLRRGAAKTRKEPKGEASSSNPATPIKIPDCPVPASLLEELLRPPPAVSKEPLKNLNSCLQQLKQEMDSLQRQMEEHALTVHESLSSWTPLEPATASPVPPGGHAGPRGDPQRHSQSRASKEGPGE | binds |
